Values quoted from earlier work, collected in US12303479B2, “Chloride intracellular channel 1 for regulation of food intake” (The Regents of the University of California, priority 2019, dated 2025).
At least one compound was matched to its structure with a doubt left.

Tested on: mice
Conditions: minocycline co-treatment; cited from earlier work

CN(C)c1ccc(O)c2c1C[C@H]1C[C@H]3[C@H](N(C)C)C(O)=C(C(N)=O)C(=O)[C@@]3(O)C(O)=C1C2=O [minocycline]
antipsychotic-induced hyperphagia and weight gain: blocks
